Measurements published in the supplement of paper PMC10849652.
Some of the results follow.

Chains of the proteins cited; added tags and fusions are not shown. Lines headed by an entry give the natural chain unless they say otherwise; changes in a name come on top.
UniProt P30519: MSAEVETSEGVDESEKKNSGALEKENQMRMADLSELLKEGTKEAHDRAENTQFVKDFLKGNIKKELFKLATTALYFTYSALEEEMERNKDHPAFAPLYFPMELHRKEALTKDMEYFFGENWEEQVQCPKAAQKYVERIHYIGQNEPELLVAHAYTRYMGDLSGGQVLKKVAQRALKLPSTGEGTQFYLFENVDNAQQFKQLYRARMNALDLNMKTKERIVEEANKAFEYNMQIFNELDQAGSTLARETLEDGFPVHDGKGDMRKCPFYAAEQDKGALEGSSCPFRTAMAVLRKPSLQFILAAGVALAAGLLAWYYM
UniProt P52789: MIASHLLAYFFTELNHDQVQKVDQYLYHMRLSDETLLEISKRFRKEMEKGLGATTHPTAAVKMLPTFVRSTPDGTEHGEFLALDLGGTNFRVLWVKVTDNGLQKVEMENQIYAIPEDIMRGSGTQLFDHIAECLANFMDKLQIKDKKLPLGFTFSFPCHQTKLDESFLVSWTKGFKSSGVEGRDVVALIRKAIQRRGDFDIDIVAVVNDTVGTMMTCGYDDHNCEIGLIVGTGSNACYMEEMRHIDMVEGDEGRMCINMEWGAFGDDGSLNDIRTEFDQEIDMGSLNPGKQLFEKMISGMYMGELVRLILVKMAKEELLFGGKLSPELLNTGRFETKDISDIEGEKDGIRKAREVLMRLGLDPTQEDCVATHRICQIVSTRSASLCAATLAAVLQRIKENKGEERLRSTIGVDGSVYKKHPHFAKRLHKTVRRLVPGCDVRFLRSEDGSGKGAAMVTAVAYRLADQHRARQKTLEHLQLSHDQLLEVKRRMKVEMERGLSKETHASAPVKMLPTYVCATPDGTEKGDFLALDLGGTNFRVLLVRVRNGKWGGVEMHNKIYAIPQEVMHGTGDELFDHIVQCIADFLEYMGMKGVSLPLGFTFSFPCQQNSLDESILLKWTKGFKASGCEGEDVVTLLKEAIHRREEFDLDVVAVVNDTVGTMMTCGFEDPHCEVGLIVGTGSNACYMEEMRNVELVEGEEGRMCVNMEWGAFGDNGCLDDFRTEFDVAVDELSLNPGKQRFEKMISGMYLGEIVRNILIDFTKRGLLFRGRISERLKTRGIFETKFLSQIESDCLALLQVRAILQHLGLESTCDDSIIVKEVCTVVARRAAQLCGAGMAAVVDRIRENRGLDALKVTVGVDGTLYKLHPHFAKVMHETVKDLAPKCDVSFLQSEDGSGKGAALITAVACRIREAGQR
UniProt Q86VS8: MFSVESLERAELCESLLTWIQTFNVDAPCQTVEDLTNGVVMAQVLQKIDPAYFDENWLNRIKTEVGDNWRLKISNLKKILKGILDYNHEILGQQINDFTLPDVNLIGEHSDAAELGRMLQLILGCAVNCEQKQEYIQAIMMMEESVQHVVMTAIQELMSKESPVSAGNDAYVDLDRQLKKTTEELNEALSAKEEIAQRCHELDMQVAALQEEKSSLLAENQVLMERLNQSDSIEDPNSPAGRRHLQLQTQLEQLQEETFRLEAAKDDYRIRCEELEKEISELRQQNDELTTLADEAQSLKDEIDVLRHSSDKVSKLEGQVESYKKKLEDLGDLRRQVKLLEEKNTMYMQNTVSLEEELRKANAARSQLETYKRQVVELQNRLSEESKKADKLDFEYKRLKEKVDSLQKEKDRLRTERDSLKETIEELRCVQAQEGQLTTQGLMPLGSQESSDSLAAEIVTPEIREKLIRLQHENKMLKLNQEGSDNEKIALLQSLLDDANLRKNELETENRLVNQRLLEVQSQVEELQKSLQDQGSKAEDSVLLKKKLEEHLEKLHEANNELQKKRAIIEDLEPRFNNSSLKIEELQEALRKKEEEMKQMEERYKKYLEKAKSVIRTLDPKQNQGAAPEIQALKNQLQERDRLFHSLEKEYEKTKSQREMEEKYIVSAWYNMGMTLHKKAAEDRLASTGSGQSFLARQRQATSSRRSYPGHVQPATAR
UniProt P05362: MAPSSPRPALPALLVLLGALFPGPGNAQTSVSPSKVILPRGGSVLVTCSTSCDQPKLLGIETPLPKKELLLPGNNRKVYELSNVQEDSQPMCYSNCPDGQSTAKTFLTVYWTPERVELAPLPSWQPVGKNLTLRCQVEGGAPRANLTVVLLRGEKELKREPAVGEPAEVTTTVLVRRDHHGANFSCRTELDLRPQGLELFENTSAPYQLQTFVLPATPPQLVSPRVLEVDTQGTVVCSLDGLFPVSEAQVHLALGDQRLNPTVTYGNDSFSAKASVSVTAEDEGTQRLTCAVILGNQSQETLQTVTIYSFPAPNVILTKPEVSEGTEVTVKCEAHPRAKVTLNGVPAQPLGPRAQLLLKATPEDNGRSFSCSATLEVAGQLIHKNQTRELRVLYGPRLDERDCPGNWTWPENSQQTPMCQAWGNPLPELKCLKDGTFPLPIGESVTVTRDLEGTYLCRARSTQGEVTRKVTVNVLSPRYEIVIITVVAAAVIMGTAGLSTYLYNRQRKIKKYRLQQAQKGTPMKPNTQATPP
UniProt O15347: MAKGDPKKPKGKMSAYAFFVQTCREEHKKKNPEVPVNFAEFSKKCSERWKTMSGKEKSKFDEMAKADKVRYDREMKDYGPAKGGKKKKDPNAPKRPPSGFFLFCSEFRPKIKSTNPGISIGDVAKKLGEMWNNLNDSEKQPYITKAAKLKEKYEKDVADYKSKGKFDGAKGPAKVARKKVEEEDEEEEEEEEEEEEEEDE
UniProt P07910: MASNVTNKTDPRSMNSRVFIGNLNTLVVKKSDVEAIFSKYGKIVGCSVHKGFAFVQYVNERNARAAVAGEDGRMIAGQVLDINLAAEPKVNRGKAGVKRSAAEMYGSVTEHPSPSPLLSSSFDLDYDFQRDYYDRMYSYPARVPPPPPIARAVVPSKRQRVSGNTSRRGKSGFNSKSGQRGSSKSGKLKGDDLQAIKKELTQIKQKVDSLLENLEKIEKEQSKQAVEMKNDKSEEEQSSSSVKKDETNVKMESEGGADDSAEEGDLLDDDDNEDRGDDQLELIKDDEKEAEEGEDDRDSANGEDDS
UniProt O75146: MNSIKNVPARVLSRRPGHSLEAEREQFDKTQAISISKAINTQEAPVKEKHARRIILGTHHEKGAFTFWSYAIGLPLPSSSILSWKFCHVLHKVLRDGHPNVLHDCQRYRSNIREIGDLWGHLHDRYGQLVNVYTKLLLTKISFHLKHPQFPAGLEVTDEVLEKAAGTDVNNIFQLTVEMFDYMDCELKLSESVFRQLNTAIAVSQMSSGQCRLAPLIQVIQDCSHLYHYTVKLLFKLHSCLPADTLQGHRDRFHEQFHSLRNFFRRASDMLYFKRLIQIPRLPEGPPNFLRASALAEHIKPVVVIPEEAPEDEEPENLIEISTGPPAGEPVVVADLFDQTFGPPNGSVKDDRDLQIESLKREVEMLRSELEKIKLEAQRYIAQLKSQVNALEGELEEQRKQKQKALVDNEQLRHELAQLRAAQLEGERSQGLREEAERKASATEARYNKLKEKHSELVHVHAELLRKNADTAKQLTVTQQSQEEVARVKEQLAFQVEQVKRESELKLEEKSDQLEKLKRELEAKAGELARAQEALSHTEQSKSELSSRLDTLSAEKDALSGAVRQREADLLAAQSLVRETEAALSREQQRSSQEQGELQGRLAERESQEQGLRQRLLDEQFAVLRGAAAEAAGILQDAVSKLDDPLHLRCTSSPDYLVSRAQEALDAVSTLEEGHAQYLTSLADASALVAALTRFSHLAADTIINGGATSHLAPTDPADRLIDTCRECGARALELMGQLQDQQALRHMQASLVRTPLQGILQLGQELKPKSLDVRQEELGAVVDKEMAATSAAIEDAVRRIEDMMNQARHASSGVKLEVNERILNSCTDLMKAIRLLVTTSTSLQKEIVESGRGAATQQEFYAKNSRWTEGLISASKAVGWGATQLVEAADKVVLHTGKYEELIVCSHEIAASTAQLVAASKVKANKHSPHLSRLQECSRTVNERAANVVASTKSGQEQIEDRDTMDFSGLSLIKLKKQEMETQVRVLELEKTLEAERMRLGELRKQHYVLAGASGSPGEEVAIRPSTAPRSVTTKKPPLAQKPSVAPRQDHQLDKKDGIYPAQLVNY
UniProt Q53GQ0: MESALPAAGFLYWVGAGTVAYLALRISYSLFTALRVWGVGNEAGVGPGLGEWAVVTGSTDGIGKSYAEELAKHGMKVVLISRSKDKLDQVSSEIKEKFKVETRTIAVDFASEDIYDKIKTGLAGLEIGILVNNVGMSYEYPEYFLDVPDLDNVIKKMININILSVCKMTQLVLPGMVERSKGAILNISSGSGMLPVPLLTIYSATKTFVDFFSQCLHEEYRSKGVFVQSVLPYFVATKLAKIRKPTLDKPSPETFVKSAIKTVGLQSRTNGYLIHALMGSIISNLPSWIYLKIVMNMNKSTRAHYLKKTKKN
UniProt P31943: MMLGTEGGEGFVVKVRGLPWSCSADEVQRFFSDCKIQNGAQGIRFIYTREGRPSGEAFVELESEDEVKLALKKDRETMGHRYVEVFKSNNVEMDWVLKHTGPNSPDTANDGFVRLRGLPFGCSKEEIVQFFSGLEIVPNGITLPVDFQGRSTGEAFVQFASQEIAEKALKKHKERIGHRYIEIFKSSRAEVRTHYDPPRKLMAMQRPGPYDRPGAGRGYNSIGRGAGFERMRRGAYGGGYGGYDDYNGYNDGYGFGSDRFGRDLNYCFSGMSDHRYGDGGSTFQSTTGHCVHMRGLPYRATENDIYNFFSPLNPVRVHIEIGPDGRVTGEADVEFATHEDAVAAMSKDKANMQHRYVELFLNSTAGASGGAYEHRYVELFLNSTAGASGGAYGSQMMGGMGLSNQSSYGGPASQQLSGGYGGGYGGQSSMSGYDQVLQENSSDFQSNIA
UniProt P05114: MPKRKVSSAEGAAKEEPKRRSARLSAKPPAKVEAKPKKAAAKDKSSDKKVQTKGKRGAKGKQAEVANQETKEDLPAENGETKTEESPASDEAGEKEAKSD
UniProt Q53FT3: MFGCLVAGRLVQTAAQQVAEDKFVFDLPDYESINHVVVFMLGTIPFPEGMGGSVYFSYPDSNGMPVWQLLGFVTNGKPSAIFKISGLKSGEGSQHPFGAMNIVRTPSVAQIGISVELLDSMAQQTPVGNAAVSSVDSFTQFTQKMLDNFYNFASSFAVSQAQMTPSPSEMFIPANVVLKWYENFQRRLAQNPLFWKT
UniProt Q9BUJ2: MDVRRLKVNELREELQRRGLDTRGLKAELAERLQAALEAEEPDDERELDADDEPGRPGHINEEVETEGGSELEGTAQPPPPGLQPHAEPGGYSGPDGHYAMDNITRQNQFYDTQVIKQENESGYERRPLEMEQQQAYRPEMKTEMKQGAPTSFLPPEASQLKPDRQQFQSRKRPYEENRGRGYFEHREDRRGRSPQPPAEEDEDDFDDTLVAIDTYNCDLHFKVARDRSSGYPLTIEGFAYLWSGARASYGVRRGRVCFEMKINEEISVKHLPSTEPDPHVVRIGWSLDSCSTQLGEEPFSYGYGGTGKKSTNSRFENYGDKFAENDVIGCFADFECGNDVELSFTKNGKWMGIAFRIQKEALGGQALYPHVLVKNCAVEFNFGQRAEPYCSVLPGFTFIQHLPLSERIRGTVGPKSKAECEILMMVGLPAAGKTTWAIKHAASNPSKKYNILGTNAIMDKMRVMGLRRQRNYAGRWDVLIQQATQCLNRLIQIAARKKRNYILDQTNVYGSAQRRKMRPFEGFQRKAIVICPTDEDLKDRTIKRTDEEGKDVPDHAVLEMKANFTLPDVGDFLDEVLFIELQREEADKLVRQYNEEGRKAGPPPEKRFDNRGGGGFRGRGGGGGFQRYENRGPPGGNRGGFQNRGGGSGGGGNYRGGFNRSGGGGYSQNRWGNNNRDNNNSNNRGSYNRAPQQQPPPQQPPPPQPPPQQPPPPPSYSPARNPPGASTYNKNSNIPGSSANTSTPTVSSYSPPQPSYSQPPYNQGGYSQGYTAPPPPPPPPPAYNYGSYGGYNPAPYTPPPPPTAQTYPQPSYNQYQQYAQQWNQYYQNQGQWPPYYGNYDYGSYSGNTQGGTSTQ
UniProt Q86YM7: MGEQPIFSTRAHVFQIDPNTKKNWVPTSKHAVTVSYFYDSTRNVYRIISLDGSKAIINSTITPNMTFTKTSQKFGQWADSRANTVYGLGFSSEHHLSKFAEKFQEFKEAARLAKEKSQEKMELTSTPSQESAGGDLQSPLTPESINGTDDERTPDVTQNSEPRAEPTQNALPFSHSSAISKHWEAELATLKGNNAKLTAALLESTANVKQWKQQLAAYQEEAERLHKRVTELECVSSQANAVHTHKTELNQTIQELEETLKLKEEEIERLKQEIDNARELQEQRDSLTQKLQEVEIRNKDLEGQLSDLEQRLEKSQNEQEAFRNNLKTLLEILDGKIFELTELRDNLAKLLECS
UniProt Q6DN03, whole entry, looked up: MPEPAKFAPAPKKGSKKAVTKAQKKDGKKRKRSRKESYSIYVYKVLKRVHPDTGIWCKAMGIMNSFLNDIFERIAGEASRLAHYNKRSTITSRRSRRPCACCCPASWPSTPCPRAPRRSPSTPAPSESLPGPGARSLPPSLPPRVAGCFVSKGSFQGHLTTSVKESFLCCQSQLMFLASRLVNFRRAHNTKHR

These targets were tested with C[C@H](C1=CC=C(C=C1)C(=O)NC2=C3C=CNC3=NC=C2)N (assay: log2 fold change, soluble protein after heating vs DMSO (PISA); higher = thermal stabilisation; K562 cells, 10 uM, 30 min; active = over 0.2 and 3.5 SD of the protein, either way, in both replicates (recomputed)).
How it was run: (§1)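 K562 cells at 2×10^6 cells/mL were treated with 10 μM compound for 30 min. Aliquots were heated for 3 min across 48°C-58°C, pooled, and extracted in PBS with 0.5% NP-40 at 4°C; soluble protein was the supernatant after 21,000xg for 90 min. Soluble protein was quantified by TMTpro 16plex LC-MS/MS with channel sums equalised, and reported as log2 fold change in thermal stability against DMSO controls, with values from duplicates.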

log2 fold change, inactive:
HNRNPR (UniProt O43390) 0.289, HSP90AB3P (UniProt Q58FF7) 0.086, HSPA8 (UniProt E9PK54) 0.334, HMOX2 (UniProt P30519) 0.008, HNRNPF (UniProt P52597) -0.004, HSPA8 (UniProt E9PN89) 0.377, HIST2H3A (UniProt Q71DI3) 0.399, HMGN2 (UniProt P05204) -0.019, HK2 (UniProt P52789) -0.014, HRAS (UniProt P01112) -0.057, HNRNPH2 (UniProt P55795) -0.023, HOOK3 (UniProt Q86VS8) 0.036, ICAM1 (UniProt P05362) -0.069, HMGB3 (UniProt O15347) -0.071, HIST2H2BF isoform 2 (UniProt Q5QNW6) 0.38, HINT2 (UniProt Q9BX68) -0.154, HNRNPC isoform 2 (UniProt P07910) 0.532, HHEX (UniProt Q03014) 0.49, HS1BP3 (UniProt Q53T59) 0.143, HIP1R (UniProt O75146) 0.026, HNRNPUL2 (UniProt Q1KMD3) 0.123, HPCAL1 (UniProt P37235) -0.047, HSD17B12 (UniProt Q53GQ0) -0.061, HIC2 (UniProt Q96JB3) 0.043, HNRNPH1 (UniProt P31943) 0.02, HMGN1 (UniProt P05114) 0.058, HIKESHI (UniProt Q53FT3) -0.023, HNRNPUL1 (UniProt Q9BUJ2) 0.147, HOMER1 (UniProt Q86YM7) -0.014

What follows are targets tested with C[C@H](Nc1ncnc2nc[nH]c12)c1cc2cccc(Cl)c2c(=O)n1-c1ccccc1 [duvelisib] in the same assay as above.
How it was run: as §1

log2 fold change, inactive:
HSP90AB3P (UniProt Q58FF7) 0.118, HINT2 (UniProt Q9BX68) 0.131, HIST2H2BC (UniProt Q6DN03) -0.151

What follows are targets tested with Cc1cc(Nc2cc(CN3CCOCC3)c3nc(C)c(Cc4ccc(Cl)cc4F)n3n2)n[nH]1 [gandotinib] in the same assay as above.
How it was run: as §1

log2 fold change, inactive:
HSP90AB3P (UniProt Q58FF7) -0.068, HNRNPK isoform 3 (UniProt P61978) -0.082, HSPA8 (UniProt E9PK54) 0.01, HMOX2 (UniProt P30519) 0.017, HNRNPF (UniProt P52597) -0.07, HSPA8 (UniProt E9PN89) -0.068, HIST2H3A (UniProt Q71DI3) -0.014, HMGN2 (UniProt P05204) -0.212, HRAS (UniProt P01112) 0.068, HNRNPH2 (UniProt P55795) 0.06, HOOK3 (UniProt Q86VS8) -0.067, ICAM1 (UniProt P05362) -0.134, HMGB3 (UniProt O15347) 0.01, HIST2H2BF isoform 2 (UniProt Q5QNW6) -0.018, HINT2 (UniProt Q9BX68) -0.07, HNRNPC isoform 2 (UniProt P07910) 0.197, HHEX (UniProt Q03014) -0.042, HIP1R (UniProt O75146) -0.069, HNRNPUL2 (UniProt Q1KMD3) -0.005, HPCAL1 (UniProt P37235) -0.033, HIC2 (UniProt Q96JB3) 0.088, HNRNPH1 (UniProt P31943) -0.017, HMGN1 (UniProt P05114) 0.094, HIST2H2BC (UniProt Q6DN03) 0.113, HIKESHI (UniProt Q53FT3) -0.033, HNRNPUL1 (UniProt Q9BUJ2) 0.049, HOMER1 (UniProt Q86YM7) -0.068

log2 fold change, active:
HK2 (UniProt P52789) -0.297, HSD17B12 (UniProt Q53GQ0) 0.371

The targets below were run with Cc1cc(SCc2sc(-c3ccc(C(F)(F)F)cc3)nc2C)ccc1OCC(=O)O in the same assay as above.
How it was run: as §1

log2 fold change, inactive:
HSP90AB3P (UniProt Q58FF7) 0.001, HNRNPK isoform 3 (UniProt P61978) -0.037, HSPA8 (UniProt E9PK54) 0.088, HMOX2 (UniProt P30519) 0.041, HNRNPF (UniProt P52597) 0.119, HIST2H3A (UniProt Q71DI3) -0.031, HMGN2 (UniProt P05204) -0.058, ICMT (UniProt O60725) -0.107, HK2 (UniProt P52789) 0.013, HRAS (UniProt P01112) -0.077, HNRNPH2 (UniProt P55795) 0.177, HOOK3 (UniProt Q86VS8) 0.033, ICAM1 (UniProt P05362) -0.054, HMGB3 (UniProt O15347) -0.001, HIST2H2BF isoform 2 (UniProt Q5QNW6) -0.064, HINT2 (UniProt Q9BX68) -0.001, HNRNPC isoform 2 (UniProt P07910) 0.125, HHEX (UniProt Q03014) 0.021, HS1BP3 (UniProt Q53T59) -0.012, HIP1R (UniProt O75146) 0.029, HNRNPUL2 (UniProt Q1KMD3) 0.015, HPCAL1 (UniProt P37235) -0.014, HSD17B12 (UniProt Q53GQ0) 0.055, HIC2 (UniProt Q96JB3) 0.011, HNRNPH1 (UniProt P31943) 0.126, HMGN1 (UniProt P05114) -0.027, HIST2H2BC (UniProt Q6DN03) -0.122, HIKESHI (UniProt Q53FT3) -0.021, HNRNPUL1 (UniProt Q9BUJ2) 0.085, HOMER1 (UniProt Q86YM7) -0.002
